Data as given in PubChem BioAssay AID1259308 (NCATS, 2017).
This is an unselected part of about 59,000 reagents tested. In the full data, about 1,510 (2.6%) are marked active. 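Calls use total luciferase alone and ignore viability, so some active siRNAs may act by altering cell number.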 A number with no mark means an inactive call. Reagents against one gene are numbered here. Not all columns of the deposit are shown.

Test: 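Knock-downs that increase output of a recombinant reporter protein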 (primary screen)
Cell system: human HEK293 embryonic kidney cells stably expressing firefly luciferase (HEK-CMV-Luc2-Hygro)
Reagents: single siRNA against human genes, 0.8 pmol siRNA per well
Time to read-out: 72 h
Read-out: 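Luciferase light (ONE-Glo) measured on one replicate plate set and viability (CellTiter-Glo) on the other, scaled to a negative control siRNA, with robust z-scores and luciferase per cell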
Scale: total luciferase, z-score: higher = more reporter protein produced
Rule for the call: 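Active when the median/MAD z-score for overall luciferase is greater than 3; a gene was taken forward for validation with new siRNAs if at least two of its three siRNAs passed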
Calls: active = raised luciferase; inactive = no rise

total luciferase, z-score, by target and reagent
GPR158 (GeneID 57512): #1 -1.17; #2 -0.009; #3 0.776
ARMCX6 (GeneID 54470): #1 -0.689; #2 -0.826; #3 -0.541
ARHGAP33 (GeneID 115703): #1 0.906; #2 0.238; #3 1.97
BIRC6 (GeneID 57448): #1 0.944; #2 -0.755; #3 0.228
IGLL3P (GeneID 91353): #1 2.24; #2 -0.681; #3 1.47
CSTF2 (GeneID 1478): #1 0.673; #2 0.862; #3 0.611
PALM (GeneID 5064): #1 3.95 (active); #2 0.481; #3 -1.83
CEBPA (GeneID 1050): #1 -0.633; #2 0.38; #3 3.98 (active)
ANKUB1 (GeneID 389161): #1 0.505; #2 -0.58; #3 0.188
MARCHF9 (GeneID 92979): #1 0.417; #2 0.0101; #3 -0.519
FAM185A (GeneID 222234): #1 0.134; #2 0.173; #3 -0.0517
PXMP4 (GeneID 11264): #1 2.15; #2 0.264; #3 0.17
MFSD1 (GeneID 64747): #1 -0.96; #2 -1.93; #3 -0.512
MTND5P10 (GeneID 643031): #1 -0.625; #2 -0.291; #3 0.801
DCTD (GeneID 1635): #1 0.657; #2 0.896; #3 0.816
ADCK2 (GeneID 90956): #1 -0.0856; #2 -0.154; #3 -0.0399
GPBP1L1 (GeneID 60313): #1 -0.364; #2 0.897; #3 0.488
ASB16-AS1 (GeneID 339201): #1 -1.45; #2 0.067; #3 0.699
IDH3B (GeneID 3420): #1 -0.458; #2 -0.504; #3 -0.0242

Copied from the list.
Under “total luciferase, z-score”, PALM (GeneID 5064) #1 shows 3.95 (active)
For “total luciferase, z-score”, MFSD1 (GeneID 64747) #3 shows -0.512
Under “total luciferase, z-score”, ARMCX6 (GeneID 54470) #3 is entered as -0.541
